Measured data: PubChem BioAssay AID1259254 (NCATS, 2017)
Here is one part, drawn at random, of about 59,000 reagents. About 1,550 of all reagents (2.6%) count as active. 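G2 share is only a proxy for re-replication; each gene was hit by three separate siRNAs, and active genes were retested.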 Reagents against one gene are numbered here. Further read-outs or replicates are left out here. The record does not give: the amount of reagent.

Screen: 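Finding genes that stop cells copying their DNA twice in one cycle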 (primary screen)
Cells: human HCT116 colorectal cancer cells
Knock-down reagent: single siRNA against human genes
Time to read-out: 3 days
Read-out: 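Nuclei stained with Hoechst and imaged; cell-cycle phase assigned by DNA content; G2 share scaled per plate, non-targeting siRNA 0%, GMNN siRNA 100%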
Direction: G2 robust z-score: higher = more G2 cells, more excess DNA replication
Call rule: 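An siRNA counts as active if its G2 robust z-score lies at least 5 MADs above the screen median; here such calls match roughly 38% of GMNN control or more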

SACM1L #1
- G2 robust z-score: -0.27
- outcome: inactive

SACM1L #2
- G2 robust z-score: -0.0665
- outcome: inactive

SACM1L #3
- G2 robust z-score: -0.431
- outcome: inactive

MIR7-3HG #1
- G2 robust z-score: -0.573
- outcome: inactive

MIR7-3HG #2
- G2 robust z-score: -0.439
- outcome: inactive

MIR7-3HG #3
- G2 robust z-score: -0.791
- outcome: inactive

2 entries already listed, sorted by “G2 robust z-score”, ascending.
MIR7-3HG #1
- G2 robust z-score: -0.573
- outcome: inactive

MIR7-3HG #2
- G2 robust z-score: -0.439
- outcome: inactive

Next records:
OPN1SW #1
- G2 robust z-score: -1.69
- outcome: inactive

OPN1SW #2
- G2 robust z-score: -0.681
- outcome: inactive

OPN1SW #3
- G2 robust z-score: 0.718
- outcome: inactive

KLRC3 #1
- G2 robust z-score: 0.947
- outcome: inactive

KLRC3 #2
- G2 robust z-score: -0.896
- outcome: inactive

KLRC3 #3
- G2 robust z-score: -0.294
- outcome: inactive
